# Measurements published in the supplement of paper PMC7666118.
# By UniProt entry, the sequences of proteins in these tests, tags left out. Where a name states a change or a piece, a line headed by the entry shows the natural chain unless it says otherwise.
# UniProt Q96AE7: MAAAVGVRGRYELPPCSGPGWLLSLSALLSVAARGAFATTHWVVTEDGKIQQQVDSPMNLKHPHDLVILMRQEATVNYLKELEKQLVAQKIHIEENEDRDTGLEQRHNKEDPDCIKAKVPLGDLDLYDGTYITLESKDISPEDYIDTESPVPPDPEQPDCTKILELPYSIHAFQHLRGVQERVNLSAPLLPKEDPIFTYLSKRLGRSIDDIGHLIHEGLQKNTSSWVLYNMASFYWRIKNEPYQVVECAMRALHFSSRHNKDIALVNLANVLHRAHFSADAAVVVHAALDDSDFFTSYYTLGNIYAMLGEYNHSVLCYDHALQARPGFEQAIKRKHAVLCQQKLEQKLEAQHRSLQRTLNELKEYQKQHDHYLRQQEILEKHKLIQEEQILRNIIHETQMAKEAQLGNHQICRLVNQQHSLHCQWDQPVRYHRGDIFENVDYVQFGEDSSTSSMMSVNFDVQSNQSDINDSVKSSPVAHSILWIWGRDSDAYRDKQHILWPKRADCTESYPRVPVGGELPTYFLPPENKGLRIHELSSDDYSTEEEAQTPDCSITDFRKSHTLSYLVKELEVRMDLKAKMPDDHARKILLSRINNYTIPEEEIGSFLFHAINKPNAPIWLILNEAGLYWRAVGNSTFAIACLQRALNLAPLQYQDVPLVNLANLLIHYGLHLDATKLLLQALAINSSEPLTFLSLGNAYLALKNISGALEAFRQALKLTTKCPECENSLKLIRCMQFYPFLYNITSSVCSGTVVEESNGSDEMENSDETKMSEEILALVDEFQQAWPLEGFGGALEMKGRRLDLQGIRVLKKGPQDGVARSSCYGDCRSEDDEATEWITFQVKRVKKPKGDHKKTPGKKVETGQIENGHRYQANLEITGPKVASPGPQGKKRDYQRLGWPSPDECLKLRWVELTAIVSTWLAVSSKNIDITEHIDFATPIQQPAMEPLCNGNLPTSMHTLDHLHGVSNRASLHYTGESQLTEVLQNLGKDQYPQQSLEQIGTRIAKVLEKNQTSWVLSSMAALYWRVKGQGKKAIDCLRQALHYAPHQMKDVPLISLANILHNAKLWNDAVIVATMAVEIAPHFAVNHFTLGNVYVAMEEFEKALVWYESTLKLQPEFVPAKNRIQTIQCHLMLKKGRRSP
# UniProt Q01081: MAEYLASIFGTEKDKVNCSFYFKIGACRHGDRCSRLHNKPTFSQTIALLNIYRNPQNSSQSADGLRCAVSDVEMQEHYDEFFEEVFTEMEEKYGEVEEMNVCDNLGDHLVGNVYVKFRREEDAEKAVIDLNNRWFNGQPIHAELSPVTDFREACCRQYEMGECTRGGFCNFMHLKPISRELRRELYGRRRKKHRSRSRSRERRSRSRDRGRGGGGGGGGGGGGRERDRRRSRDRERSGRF
# UniProt Q9HA47: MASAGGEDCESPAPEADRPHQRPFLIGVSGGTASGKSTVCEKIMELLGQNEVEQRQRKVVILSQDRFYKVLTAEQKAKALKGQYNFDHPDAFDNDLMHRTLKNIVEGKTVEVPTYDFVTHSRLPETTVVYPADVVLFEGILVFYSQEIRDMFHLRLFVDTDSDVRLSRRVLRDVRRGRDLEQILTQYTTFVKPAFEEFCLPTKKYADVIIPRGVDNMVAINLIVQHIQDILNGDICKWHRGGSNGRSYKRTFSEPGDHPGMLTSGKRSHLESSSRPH
# UniProt Q9UMX0, whole entry: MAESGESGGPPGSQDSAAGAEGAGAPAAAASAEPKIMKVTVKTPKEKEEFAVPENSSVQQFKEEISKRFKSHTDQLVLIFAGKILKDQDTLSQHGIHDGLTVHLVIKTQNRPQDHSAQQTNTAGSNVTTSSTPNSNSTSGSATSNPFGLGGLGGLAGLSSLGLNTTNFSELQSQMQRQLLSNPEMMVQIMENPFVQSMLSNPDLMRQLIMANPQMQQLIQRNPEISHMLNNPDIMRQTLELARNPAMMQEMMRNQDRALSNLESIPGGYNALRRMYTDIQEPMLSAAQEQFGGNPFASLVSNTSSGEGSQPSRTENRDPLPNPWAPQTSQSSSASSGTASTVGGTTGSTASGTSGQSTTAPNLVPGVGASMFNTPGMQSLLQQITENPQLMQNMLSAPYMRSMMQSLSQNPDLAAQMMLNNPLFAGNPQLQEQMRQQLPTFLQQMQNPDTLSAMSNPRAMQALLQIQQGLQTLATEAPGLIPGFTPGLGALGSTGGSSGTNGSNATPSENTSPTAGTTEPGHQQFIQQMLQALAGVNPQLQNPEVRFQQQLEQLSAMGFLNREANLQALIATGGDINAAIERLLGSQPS
# UniProt P51784: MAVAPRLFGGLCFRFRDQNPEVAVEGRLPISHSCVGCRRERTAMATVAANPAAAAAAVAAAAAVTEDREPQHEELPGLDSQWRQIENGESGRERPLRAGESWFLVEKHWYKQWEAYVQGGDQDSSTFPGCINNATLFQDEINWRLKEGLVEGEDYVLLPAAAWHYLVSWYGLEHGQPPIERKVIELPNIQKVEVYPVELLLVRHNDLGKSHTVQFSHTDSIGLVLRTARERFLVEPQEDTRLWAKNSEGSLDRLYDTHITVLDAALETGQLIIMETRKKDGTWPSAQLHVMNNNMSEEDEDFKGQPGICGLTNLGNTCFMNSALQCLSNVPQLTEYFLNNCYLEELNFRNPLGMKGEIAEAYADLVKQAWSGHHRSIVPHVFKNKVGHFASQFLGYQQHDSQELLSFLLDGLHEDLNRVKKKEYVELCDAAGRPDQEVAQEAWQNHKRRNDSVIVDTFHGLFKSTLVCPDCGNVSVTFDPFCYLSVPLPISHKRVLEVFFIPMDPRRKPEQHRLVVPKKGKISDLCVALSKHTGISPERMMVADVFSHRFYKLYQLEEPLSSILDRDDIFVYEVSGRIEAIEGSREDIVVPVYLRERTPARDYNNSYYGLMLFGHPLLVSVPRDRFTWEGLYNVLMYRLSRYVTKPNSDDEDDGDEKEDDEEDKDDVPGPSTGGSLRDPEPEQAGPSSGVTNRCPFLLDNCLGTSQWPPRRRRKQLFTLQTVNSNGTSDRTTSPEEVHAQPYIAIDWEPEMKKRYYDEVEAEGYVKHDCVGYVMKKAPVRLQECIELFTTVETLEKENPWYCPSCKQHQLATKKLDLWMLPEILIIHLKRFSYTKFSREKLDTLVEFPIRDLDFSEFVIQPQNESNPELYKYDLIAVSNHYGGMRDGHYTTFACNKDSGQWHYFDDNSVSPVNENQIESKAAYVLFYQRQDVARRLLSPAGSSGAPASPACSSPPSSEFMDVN
# UniProt Q9C037: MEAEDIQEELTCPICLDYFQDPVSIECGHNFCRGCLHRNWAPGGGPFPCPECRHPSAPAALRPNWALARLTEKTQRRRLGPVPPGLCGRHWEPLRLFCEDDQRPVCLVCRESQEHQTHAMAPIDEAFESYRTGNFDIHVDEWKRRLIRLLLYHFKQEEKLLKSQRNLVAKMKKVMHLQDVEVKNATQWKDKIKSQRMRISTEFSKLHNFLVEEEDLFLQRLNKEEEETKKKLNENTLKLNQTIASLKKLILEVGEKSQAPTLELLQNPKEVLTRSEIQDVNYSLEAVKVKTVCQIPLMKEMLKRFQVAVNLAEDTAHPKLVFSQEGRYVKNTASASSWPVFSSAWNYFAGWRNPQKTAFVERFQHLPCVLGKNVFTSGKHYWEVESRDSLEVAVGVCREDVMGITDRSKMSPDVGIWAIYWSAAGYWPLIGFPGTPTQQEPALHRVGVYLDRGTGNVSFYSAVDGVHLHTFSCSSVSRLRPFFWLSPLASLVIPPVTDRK
# UniProt Q8NCE0: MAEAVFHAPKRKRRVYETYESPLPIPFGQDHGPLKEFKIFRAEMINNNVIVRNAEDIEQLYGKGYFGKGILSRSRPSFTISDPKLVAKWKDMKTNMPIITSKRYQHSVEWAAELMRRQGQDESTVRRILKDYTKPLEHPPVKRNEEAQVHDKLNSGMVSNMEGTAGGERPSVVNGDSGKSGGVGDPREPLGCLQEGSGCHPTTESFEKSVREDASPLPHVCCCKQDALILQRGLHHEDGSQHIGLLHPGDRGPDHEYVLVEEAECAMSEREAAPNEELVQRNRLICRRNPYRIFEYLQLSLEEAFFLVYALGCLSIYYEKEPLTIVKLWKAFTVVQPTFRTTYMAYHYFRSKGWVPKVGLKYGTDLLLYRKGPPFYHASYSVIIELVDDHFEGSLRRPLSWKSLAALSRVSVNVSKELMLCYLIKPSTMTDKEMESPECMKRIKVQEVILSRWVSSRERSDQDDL
# UniProt P04818: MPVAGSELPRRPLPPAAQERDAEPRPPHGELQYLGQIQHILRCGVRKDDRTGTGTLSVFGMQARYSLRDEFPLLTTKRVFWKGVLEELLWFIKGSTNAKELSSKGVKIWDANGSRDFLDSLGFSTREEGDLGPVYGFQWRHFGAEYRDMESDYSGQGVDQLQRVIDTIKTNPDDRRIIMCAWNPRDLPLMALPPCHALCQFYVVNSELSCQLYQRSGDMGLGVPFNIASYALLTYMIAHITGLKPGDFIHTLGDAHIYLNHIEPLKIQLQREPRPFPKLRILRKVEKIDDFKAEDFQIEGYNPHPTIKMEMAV
# UniProt Q7Z4L5: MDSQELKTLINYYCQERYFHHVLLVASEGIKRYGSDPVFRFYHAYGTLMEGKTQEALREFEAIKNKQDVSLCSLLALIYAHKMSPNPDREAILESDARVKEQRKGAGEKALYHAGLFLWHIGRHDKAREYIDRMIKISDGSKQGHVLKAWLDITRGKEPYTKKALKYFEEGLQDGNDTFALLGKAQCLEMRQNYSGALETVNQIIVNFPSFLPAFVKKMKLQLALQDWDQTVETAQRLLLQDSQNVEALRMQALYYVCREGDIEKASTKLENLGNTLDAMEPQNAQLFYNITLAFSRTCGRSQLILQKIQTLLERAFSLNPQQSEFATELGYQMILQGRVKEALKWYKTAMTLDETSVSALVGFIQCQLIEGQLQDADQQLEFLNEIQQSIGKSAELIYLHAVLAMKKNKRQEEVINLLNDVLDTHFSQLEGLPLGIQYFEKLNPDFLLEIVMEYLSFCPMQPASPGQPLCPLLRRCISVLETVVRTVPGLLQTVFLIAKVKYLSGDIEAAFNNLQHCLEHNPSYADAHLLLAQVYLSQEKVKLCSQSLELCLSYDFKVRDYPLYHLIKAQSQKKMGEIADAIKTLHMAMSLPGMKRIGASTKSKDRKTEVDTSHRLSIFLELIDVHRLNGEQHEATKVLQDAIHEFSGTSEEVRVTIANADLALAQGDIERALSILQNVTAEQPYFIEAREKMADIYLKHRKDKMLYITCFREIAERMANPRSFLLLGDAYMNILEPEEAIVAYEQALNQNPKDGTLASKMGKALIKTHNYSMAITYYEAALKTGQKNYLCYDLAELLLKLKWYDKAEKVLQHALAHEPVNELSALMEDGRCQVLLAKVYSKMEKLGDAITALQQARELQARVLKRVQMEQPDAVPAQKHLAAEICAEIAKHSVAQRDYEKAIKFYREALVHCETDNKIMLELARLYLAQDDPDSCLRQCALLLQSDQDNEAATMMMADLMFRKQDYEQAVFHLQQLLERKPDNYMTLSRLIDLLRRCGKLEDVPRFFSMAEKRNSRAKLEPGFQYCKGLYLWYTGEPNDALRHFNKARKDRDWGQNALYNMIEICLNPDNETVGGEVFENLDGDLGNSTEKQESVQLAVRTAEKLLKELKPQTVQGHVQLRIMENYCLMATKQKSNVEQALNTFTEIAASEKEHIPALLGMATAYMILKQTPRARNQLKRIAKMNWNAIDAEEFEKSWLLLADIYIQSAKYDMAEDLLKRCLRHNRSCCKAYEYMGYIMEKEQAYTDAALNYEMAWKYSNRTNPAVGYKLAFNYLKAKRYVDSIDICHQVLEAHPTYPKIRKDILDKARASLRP
# UniProt P62837, whole entry: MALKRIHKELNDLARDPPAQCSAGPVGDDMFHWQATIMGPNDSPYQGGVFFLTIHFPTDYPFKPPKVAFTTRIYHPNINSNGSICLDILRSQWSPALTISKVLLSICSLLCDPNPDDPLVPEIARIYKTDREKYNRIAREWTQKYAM
# UniProt Q16881, whole entry: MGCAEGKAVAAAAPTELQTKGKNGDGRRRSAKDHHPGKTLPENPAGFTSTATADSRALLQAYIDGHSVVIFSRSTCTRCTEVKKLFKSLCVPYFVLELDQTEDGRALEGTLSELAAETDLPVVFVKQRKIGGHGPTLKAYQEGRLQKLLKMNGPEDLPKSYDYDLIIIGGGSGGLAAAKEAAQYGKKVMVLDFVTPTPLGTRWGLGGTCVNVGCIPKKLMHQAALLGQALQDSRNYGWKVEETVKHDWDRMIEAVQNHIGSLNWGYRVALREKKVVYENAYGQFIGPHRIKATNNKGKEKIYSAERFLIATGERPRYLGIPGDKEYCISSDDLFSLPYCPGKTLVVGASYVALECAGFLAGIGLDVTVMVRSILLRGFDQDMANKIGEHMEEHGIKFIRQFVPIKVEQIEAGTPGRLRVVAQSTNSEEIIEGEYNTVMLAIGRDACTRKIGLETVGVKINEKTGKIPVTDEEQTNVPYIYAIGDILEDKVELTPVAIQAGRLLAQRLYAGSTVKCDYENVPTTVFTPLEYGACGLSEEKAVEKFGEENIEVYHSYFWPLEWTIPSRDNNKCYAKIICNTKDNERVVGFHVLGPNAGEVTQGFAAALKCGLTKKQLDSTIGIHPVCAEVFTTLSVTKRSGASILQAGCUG
# Some of the results follow.
# Compound: COc1ccc(Cn2ccc3ccc(C(=O)NO)cc32)cc1
# Test: dose-dependent thermal stabilisation call (2D-TPP, DLPTP, 10% FDR) (binary (1 = stabilised)); higher = stabilised by the compound
# Settings: system: HL-60 intact cells; concentration range 0.04-10 µM
row,Target,dose-dependent thermal stabilisation call
1,TTC33 (UniProt Q6PID6),inactive: 0
2,TWF2 (UniProt Q6IBS0),inactive: 0
3,TTC17 (UniProt Q96AE7),inactive: 0
4,UNC119B (UniProt A6NIH7),inactive: 0
5,UBR7 (UniProt Q8N806),inactive: 0
6,TRIM33 (UniProt Q9UPN9),inactive: 0
7,UNC119 (UniProt Q13432),inactive: 0
8,TTPAL (UniProt Q9BTX7),inactive: 0
9,UFM1 (UniProt P61960),inactive: 0
10,TRAPPC6B (UniProt Q86SZ2),inactive: 0
11,U2AF1 (UniProt Q01081),inactive: 0
12,TTC4 (UniProt O95801),inactive: 0
13,TYSND1 (UniProt Q2T9J0),inactive: 0
14,UCRC (UniProt Q9UDW1),inactive: 0
15,TRIM56 (UniProt Q9BRZ2),inactive: 0
16,URB1 (UniProt O60287),inactive: 0
17,TRIM14 (UniProt Q14142),inactive: 0
18,UBA5 (UniProt Q9GZZ9),inactive: 0
19,UCK1 (UniProt Q9HA47),inactive: 0
20,USO1 (UniProt O60763),inactive: 0

# As entered above:
# For dose-dependent thermal stabilisation call, TRIM33 (UniProt Q9UPN9) is entered as inactive: 0
# For dose-dependent thermal stabilisation call, UNC119 (UniProt Q13432) is entered as inactive: 0
# For dose-dependent thermal stabilisation call, TRIM56 (UniProt Q9BRZ2) is entered as inactive: 0

# Next part.

row,Target,dose-dependent thermal stabilisation call
1,TSR1 (UniProt Q2NL82),inactive: 0
2,TXNDC12 (UniProt O95881),inactive: 0
3,TRIM27 (UniProt P14373),inactive: 0
4,UBQLN1 (UniProt Q9UMX0),inactive: 0
5,USP11 (UniProt P51784),inactive: 0
6,TRIM4 (UniProt Q9C037),inactive: 0
7,UBE2CBP (UniProt Q7Z6J8),inactive: 0
8,TTF2 (UniProt Q9UNY4),inactive: 0
9,TRPC4AP (UniProt Q8TEL6),inactive: 0
10,TSGA14 (UniProt Q9BYV8),inactive: 0
11,TSEN2 (UniProt Q8NCE0),inactive: 0
12,TYMS (UniProt P04818),inactive: 0
13,UBASH3B (UniProt Q8TF42),inactive: 0
14,TXLNA (UniProt P40222),inactive: 0
15,TTC27 (UniProt Q6P3X3),inactive: 0
16,UBR1 (UniProt Q8IWV7),inactive: 0
17,UGP2 (UniProt Q16851),inactive: 0
18,TPX2 (UniProt Q9ULW0),inactive: 0
19,TRMT6 (UniProt Q9UJA5),inactive: 0
20,TRIOBP (UniProt Q9H2D6),inactive: 0

row,Target,dose-dependent thermal stabilisation call
1,UBL4A (UniProt P11441),inactive: 0
2,UBQLN2 (UniProt Q9UHD9),inactive: 0
3,UFD1L (UniProt Q92890),inactive: 0
4,UMPS (UniProt P11172),inactive: 0
5,TSPAN14 (UniProt Q8NG11),inactive: 0
6,TRAF2 (UniProt Q12933),inactive: 0
7,TRMT61B (UniProt Q9BVS5),inactive: 0
8,TTC21B (UniProt Q7Z4L5),inactive: 0
9,TTC9C (UniProt Q8N5M4),inactive: 0
10,TST (UniProt Q16762),inactive: 0
11,TRMT11 (UniProt Q7Z4G4),inactive: 0
12,UBFD1 (UniProt O14562),inactive: 0
13,UBE2D2 (UniProt P62837),inactive: 0
14,URM1 (UniProt Q9BTM9),inactive: 0
15,TTN (UniProt Q8WZ42),inactive: 0
16,UBE2I (UniProt P63279),inactive: 0
17,TXNRD1 (UniProt Q16881),inactive: 0
18,TRIM38 (UniProt O00635),inactive: 0
